# In the supplement of paper PMC10849652:
# Chains of the proteins cited; added tags and fusions are not shown. Lines headed by an entry give the natural chain unless they say otherwise; changes in a name come on top.
# UniProt Q86X29: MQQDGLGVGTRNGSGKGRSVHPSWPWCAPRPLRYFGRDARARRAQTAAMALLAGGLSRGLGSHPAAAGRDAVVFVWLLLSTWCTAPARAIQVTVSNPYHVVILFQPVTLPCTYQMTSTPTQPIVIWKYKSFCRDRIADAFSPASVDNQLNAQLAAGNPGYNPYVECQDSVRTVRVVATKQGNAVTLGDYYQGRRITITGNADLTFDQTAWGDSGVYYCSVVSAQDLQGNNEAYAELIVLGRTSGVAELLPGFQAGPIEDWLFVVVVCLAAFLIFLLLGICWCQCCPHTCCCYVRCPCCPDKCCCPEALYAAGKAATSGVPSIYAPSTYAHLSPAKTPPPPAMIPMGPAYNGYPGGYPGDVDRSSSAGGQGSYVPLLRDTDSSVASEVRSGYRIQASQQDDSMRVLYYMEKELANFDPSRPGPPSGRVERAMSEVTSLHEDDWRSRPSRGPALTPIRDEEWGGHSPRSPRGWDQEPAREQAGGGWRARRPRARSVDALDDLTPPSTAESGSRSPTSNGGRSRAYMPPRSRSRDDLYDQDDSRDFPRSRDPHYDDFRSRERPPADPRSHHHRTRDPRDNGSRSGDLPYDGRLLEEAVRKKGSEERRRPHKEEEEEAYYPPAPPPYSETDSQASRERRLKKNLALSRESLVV
# UniProt Q8NC56: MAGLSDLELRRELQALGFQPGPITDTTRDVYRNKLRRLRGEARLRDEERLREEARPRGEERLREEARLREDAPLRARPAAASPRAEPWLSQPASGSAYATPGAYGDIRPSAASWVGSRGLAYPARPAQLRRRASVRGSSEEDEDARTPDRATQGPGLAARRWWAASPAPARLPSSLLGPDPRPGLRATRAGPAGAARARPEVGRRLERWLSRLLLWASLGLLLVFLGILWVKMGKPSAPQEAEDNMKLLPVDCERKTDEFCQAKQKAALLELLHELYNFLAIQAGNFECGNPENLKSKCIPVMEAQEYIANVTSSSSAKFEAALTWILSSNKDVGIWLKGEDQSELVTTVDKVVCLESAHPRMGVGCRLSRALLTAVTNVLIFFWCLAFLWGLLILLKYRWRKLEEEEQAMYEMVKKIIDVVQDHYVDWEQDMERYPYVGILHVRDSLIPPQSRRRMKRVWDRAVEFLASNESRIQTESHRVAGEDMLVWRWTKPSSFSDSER
# UniProt O15243: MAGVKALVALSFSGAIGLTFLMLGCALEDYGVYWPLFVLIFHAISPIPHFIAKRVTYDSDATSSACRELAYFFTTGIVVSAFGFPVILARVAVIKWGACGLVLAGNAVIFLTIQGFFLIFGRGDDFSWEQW
# UniProt Q9Y546: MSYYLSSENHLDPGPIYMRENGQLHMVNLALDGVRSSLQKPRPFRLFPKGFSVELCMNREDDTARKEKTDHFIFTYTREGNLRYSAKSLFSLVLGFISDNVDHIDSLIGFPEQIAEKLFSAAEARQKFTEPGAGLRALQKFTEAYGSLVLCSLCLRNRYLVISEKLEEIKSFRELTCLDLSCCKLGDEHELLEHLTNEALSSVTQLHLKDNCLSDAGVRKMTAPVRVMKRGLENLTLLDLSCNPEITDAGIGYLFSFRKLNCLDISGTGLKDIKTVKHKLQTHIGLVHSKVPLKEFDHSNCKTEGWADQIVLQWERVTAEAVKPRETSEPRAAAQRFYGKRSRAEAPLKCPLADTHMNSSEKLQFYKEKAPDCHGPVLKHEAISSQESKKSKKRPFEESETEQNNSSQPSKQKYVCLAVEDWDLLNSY
# UniProt P02750: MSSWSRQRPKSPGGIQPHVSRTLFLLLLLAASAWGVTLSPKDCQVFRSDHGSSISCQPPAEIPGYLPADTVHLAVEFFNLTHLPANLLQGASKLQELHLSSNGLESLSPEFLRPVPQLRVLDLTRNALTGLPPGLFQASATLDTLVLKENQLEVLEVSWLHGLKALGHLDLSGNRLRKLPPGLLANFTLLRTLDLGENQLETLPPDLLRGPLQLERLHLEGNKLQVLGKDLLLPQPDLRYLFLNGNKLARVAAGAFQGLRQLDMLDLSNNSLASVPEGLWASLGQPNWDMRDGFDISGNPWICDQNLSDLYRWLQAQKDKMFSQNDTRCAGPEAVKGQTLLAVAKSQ
# UniProt O95835: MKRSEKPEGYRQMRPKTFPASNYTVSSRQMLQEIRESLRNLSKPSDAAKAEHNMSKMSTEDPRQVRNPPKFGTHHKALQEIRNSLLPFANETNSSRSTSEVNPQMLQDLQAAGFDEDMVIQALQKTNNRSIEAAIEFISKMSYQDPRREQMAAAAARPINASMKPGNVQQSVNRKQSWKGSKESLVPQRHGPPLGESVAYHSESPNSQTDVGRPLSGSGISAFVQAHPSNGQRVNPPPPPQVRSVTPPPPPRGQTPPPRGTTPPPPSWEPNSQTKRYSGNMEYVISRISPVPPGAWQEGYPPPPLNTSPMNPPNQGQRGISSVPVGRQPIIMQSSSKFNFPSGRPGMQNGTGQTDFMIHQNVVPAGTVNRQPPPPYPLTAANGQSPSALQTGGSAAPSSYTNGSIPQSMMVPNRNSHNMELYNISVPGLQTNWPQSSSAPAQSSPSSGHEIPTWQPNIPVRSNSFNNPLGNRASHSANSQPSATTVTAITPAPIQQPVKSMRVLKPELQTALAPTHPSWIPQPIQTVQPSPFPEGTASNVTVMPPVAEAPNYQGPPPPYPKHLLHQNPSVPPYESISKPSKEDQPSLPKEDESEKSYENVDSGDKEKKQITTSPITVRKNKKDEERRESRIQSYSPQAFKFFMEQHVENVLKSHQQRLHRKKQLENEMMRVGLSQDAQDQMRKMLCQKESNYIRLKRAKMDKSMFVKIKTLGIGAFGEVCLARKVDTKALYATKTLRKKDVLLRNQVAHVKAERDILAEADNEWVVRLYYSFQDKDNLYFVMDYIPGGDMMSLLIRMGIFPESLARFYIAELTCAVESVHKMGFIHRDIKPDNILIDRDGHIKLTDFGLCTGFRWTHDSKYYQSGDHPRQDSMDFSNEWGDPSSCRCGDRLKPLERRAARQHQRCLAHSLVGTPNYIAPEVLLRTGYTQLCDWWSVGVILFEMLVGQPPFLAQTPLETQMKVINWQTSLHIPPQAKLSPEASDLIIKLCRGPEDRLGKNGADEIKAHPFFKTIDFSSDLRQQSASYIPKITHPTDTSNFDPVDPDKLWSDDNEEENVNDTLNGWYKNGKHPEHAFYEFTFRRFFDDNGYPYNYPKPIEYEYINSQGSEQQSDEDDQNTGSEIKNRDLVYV
# UniProt P61968: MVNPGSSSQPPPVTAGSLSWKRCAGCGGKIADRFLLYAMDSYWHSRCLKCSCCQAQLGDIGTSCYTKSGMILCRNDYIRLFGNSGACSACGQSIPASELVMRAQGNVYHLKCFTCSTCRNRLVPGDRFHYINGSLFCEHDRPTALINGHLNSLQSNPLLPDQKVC
# UniProt Q8TBB1: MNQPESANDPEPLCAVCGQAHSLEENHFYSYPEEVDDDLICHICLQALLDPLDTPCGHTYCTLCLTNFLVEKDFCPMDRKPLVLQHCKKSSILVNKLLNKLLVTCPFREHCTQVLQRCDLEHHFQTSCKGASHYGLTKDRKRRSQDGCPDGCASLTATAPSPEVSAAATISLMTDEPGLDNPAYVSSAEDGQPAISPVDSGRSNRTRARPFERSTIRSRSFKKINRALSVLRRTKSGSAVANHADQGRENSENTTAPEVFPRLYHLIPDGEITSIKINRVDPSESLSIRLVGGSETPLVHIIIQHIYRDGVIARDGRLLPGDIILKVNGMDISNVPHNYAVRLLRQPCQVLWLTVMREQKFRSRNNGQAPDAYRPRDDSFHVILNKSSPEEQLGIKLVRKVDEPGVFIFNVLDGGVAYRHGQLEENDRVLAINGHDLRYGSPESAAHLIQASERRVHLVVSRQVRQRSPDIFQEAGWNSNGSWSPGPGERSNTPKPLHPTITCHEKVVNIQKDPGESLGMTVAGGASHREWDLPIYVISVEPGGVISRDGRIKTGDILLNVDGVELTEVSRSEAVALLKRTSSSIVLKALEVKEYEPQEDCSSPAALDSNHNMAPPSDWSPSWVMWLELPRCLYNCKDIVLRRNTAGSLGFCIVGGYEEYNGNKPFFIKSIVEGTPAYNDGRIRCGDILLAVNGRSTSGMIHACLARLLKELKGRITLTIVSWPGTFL
# UniProt Q6PJG9: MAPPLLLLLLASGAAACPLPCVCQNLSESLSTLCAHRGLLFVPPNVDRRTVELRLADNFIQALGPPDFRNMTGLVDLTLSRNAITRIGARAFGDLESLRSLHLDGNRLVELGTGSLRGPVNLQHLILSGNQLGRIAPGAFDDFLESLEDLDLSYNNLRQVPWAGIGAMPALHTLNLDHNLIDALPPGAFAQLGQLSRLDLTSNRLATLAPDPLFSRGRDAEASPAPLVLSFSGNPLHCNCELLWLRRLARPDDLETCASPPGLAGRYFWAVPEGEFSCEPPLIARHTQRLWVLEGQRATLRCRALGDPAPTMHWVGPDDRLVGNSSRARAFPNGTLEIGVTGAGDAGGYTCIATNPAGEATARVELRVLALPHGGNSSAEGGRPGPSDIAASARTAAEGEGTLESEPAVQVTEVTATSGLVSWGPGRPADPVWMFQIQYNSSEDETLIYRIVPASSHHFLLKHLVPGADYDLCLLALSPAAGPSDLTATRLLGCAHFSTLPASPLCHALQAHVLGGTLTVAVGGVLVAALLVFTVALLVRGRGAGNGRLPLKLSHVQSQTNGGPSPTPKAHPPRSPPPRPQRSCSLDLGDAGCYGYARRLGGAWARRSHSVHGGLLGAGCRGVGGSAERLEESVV
# UniProt Q9Y2U8: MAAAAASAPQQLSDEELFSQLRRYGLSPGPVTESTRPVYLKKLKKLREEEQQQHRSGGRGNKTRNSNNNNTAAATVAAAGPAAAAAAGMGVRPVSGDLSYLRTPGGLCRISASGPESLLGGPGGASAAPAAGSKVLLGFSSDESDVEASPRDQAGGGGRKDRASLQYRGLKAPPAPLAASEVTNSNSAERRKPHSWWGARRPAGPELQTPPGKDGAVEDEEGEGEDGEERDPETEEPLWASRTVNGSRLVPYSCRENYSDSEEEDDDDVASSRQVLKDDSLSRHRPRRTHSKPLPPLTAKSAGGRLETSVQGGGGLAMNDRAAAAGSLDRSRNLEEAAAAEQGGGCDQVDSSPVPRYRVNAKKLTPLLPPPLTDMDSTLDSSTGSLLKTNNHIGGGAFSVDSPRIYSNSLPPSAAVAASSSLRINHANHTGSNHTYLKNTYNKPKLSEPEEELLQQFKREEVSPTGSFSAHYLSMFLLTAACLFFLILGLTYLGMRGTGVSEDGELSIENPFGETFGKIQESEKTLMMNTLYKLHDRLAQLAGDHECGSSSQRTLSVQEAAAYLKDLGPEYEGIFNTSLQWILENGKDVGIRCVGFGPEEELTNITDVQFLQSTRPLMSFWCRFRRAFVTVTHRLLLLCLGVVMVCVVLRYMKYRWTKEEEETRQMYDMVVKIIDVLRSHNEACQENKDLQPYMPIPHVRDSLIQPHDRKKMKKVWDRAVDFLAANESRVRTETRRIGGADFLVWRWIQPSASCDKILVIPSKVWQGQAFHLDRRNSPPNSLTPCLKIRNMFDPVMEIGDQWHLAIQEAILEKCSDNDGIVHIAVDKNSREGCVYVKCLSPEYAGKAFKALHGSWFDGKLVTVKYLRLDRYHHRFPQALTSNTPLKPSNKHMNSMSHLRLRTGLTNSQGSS
# UniProt Q92604: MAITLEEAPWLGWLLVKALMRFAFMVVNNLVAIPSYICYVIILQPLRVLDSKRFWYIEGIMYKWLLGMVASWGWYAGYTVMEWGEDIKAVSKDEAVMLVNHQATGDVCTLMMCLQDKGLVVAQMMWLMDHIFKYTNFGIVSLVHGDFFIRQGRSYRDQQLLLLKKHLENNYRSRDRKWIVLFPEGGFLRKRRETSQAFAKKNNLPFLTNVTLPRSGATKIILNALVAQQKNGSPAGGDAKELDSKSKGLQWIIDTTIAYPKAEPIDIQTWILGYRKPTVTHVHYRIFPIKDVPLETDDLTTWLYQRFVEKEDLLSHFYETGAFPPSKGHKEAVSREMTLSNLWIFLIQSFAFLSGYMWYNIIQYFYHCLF
# UniProt Q8N3X6: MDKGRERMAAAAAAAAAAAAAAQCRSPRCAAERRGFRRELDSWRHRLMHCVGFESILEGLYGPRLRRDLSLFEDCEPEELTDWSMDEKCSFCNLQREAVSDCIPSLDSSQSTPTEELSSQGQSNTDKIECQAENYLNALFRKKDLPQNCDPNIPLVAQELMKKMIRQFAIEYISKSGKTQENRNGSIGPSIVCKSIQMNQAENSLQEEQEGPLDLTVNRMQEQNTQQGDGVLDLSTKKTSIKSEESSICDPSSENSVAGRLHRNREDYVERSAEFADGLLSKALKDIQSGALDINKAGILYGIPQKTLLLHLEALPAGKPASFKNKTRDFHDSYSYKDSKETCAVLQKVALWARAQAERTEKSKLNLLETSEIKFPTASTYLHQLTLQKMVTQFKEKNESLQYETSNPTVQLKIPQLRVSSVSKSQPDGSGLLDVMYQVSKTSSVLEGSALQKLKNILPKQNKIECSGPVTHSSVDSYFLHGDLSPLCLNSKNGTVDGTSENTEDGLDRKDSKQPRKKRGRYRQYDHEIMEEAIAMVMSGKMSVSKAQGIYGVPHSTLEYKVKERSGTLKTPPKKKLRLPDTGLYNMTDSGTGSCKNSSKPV
# This is one part of the list.
# Experiments:
# Test in all cases: log2 fold change, soluble protein after heating vs DMSO (PISA); higher = thermal stabilisation; K562 lysate, 10 uM; active = over 0.2 and 3.5 SD of the protein, either way, in both replicates (recomputed)
# [1] = compound: C1=CC=C(C=C1)[C@H](COC2=CC3=C(C=C2)NC(=O)N3)NC(=O)C4=CC=CN(C4=O)CC5=CC(=C(C=C5)F)F
# Method in brief: (§1)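 A 30 min treatment with 10 μM compound was applied to crude K562 extract at 1 mg/mL protein in PBS pH 7.4 with 1 mM MgCl2. Heating for 3 min spanned 48°C-58°C, after which aliquots were pooled, adjusted to 0.5% NP-40 at 4°C and spun at 21,000xg for 90 min. TMTpro 16plex LC-MS/MS of the supernatant, with channel sums equalised, gave values recorded as log-two fold change in thermal stability against solvent controls, from duplicates.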
# [2] = compound: CC1=C(SC2=C1C(=N[C@H](C3=NN=C(N32)C)CC(=O)N)C4=CC=C(C=C4)Cl)C
# Method in brief: as §1
# [3] = compound: c1ccc([C@@H]2C[C@H]2NC2CCNCC2)cc1
# Method in brief: as §1
# [4] = compound: CC1=C2C(=CC=C1)N=C(N(C2=O)C3=CC=CC=C3C)CN4C=NC5=C(N=CN=C54)N
# Method in brief: as §1
# [5] = compound: Cc1sc2c(c1C)C(c1ccc(Cl)cc1)=N[C@@H](CC(=O)OC(C)(C)C)c1nnc(C)n1-2
# Method in brief: as §1
target,measurement,setting,value
LDHA (UniProt F5GZQ4),log2 fold change,[1],inactive: -0.112
same,log2 fold change,[2],inactive: 0.159
same,log2 fold change,[3],inactive: -0.132
LSR isoform 3 (UniProt Q86X29),log2 fold change,[3],inactive: 0.117
LGALS3BP (UniProt Q08380),log2 fold change,[4],inactive: 0.159
same,log2 fold change,[5],inactive: -0.152
same,log2 fold change,[3],inactive: -0.071
LSM11 (UniProt P83369),log2 fold change,[4],inactive: 0.285
same,log2 fold change,[5],inactive: -0.045
same,log2 fold change,[3],inactive: -0.089
LRP5 (UniProt O75197),log2 fold change,[5],inactive: -0.12
LRRC45 (UniProt Q96CN5),log2 fold change,[5],inactive: 0.059
LRRCC1 (UniProt Q9C099),log2 fold change,[4],inactive: 0.059
same,log2 fold change,[5],inactive: 0.082
LEMD2 (UniProt Q8NC56),log2 fold change,[5],inactive: -0.11
same,log2 fold change,[3],inactive: 0.045
LITAF (UniProt Q99732),log2 fold change,[5],inactive: -0.028
LDHA isoform 4 (UniProt P00338),log2 fold change,[3],inactive: 0.311
LDHD (UniProt Q86WU2),log2 fold change,[1],inactive: 0.182
same,log2 fold change,[2],inactive: -0.073
same,log2 fold change,[3],inactive: -0.239
LEF1 (UniProt Q9UJU2),log2 fold change,[4],inactive: 0.012
same,log2 fold change,[3],inactive: -0.049
LEPROT (UniProt O15243),log2 fold change,[1],inactive: 0.049
same,log2 fold change,[2],inactive: -0.009
same,log2 fold change,[3],inactive: -0.161
LRRC42 (UniProt Q9Y546),log2 fold change,[4],inactive: 0.02
same,log2 fold change,[5],inactive: 0.037
same,log2 fold change,[3],inactive: 0.088
LRG1 (UniProt P02750),log2 fold change,[1],inactive: -0.024
same,log2 fold change,[2],inactive: 0.092
same,log2 fold change,[3],inactive: -0.004
LRIG2 (UniProt O94898),log2 fold change,[4],inactive: -0.078
same,log2 fold change,[5],inactive: -0.117
same,log2 fold change,[3],inactive: -0.095
LATS1 (UniProt O95835),log2 fold change,[5],inactive: -0.031
same,log2 fold change,[3],inactive: 0.149
LRRC9 (UniProt Q6ZRR7),log2 fold change,[4],inactive: 0.008
same,log2 fold change,[3],inactive: 0.209
LMO4 (UniProt P61968),log2 fold change,[4],inactive: 0.051
same,log2 fold change,[5],inactive: 0.231
LNX1 (UniProt Q8TBB1),log2 fold change,[5],inactive: -0.036
LRFN4 (UniProt Q6PJG9),log2 fold change,[4],inactive: -0.015
same,log2 fold change,[5],inactive: -0.182
same,log2 fold change,[3],inactive: 0.025
LCN2 (UniProt P80188),log2 fold change,[4],inactive: 0.194
LEMD3 (UniProt Q9Y2U8),log2 fold change,[1],inactive: 0.223
same,log2 fold change,[2],inactive: 0.227
same,log2 fold change,[3],inactive: 0.034
LIN28A (UniProt Q9H9Z2),log2 fold change,[1],inactive: -0.056
same,log2 fold change,[2],inactive: 0.154
same,log2 fold change,[3],inactive: -0.216
LMBR1 isoform 3 (UniProt Q8WVP7),log2 fold change,[1],inactive: -0.046
same,log2 fold change,[2],inactive: 0.064
same,log2 fold change,[3],inactive: -0.068
LRPPRC (UniProt H7C3W8),log2 fold change,[4],inactive: 0.219
LRRC8E (UniProt Q6NSJ5),log2 fold change,[4],inactive: -0.027
same,log2 fold change,[3],inactive: -0.029
LRRC8C (UniProt E9PHY6),log2 fold change,[4],inactive: 0.067
LPGAT1 (UniProt Q92604),log2 fold change,[5],inactive: -0.197
same,log2 fold change,[3],inactive: 0.215
LCA5 (UniProt Q86VQ0),log2 fold change,[4],inactive: 0.03
LRRIQ1 (UniProt Q96JM4),log2 fold change,[4],inactive: -0.002
LLGL2 (UniProt Q6P1M3),log2 fold change,[4],inactive: -0.25
same,log2 fold change,[5],inactive: -0.076
LBH (UniProt Q53QV2),log2 fold change,[5],inactive: -0.01
same,log2 fold change,[3],inactive: 0.02
LCORL (UniProt Q8N3X6),log2 fold change,[4],inactive: -0.081
same,log2 fold change,[3],inactive: -0.001
LIN52 (UniProt Q52LA3),log2 fold change,[5],inactive: 0.111

# 2 successive entries from above, for reference:
target,measurement,setting,value
LPGAT1 (UniProt Q92604),log2 fold change,[5],inactive: -0.197
same,log2 fold change,[3],inactive: 0.215

# Three records picked at random from the list so far:
target,measurement,setting,value
LRRCC1 (UniProt Q9C099),log2 fold change,[5],inactive: 0.082
LDHD (UniProt Q86WU2),log2 fold change,[2],inactive: -0.073
LGALS3BP (UniProt Q08380),log2 fold change,[3],inactive: -0.071
